Values of other authors as cited in patent publication US9381381B2, “Treatment of nail infections with no” (Aberdeen University, priority 2001, dated 2016).
Like-named read-outs stand apart in the source and are kept apart here. At least one compound was matched to its structure with a doubt left. Some entries share one result that the patent states for a list of compounds.

System: onychomycosis
Settings: cited from earlier work

| Compound | Cure rates (topical treatment) | Cure rates (oral treatment) |
| --- | --- | --- |
| CCC(C)(C)c1ccc(CC(C)CN2C[C@@H](C)O[C@@H](C)C2)cc1 (stereo partly drawn) [Loceryl, amorolfine] | < 10% |  |
| Cc1cc(C2CCCCC2)n(O)c(=O)c1 [Penlac, ciclopirox] | < 10% |  |
| CCC(C)n1ncn(-c2ccc(N3CCN(c4ccc(OCC5COC(Cn6cncn6)(c6ccc(Cl)cc6Cl)O5)cc4)CC3)cc2)c1=O (stereo not drawn) [itraconazole] |  | ~70% |
